Assay results published in PubChem BioAssay AID1487 (National Center for Advancing Translational Sciences (NCATS), 2009).
The other results are listed elsewhere or left out. The main result of the screen is listed elsewhere. These columns were measured beside it and carry no call. Most of these compounds were active or inconclusive in the main read-out, so they are no random draw. The note in brackets gives the kind of curve behind each potency; many fits are weak.

Assay: qHTS Assay for Modulators of Lamin A Splicing
Settings: HeLa LMNA splicing GFP/RFP minigene ratio, 48 h
Method in brief: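 Read-out is the ratio of GFP to DsRed2 object intensity, acquired by 488 nm laser-scanning cytometry on HeLa lamin A-EGFP minigene reporter cells. Compound incubation 48 hrs at 37 °C in Opti-MEM with 2% FBS; DMSO 0.5% final.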

[1] = measured here: RFP viability control channel
[2] = measured here: GFP splicing reporter channel

Compound	AC50 [1]	AC50 [2]
Cc1cccc(NS(=O)(=O)c2ccc(Oc3ccccc3)cc2)n1	12.6 µM [rising, partial curve, poor fit]	–
COc1ccc2cc(-c3cc(C(=O)OCC(=O)NC4CCS(=O)(=O)C4)c4ccccc4n3)ccc2c1 (stereo not given)	31.6 µM [rising, partial curve, poor fit]	0.178 µM [rising, full curve]
c1ccc(Cn2ccc(-c3cnc(-c4ccccc4)s3)n2)cc1	11.2 µM [rising, single point]	–
Cc1nc2cc(NC(=O)COc3ccccc3C#N)ccc2n1-c1ccccc1	15.8 µM [rising, single point]	12.6 µM [rising, single point]
CCOc1ccccc1CNC(=O)c1ccc2c(c1)sc1nc(-c3cccc(OC)c3)cn12	3.16 µM [falling, partial curve, poor fit]	3.55 µM [falling, single point]
CC(C)(C)NC(=O)C(c1ccccn1)N(C(=O)C1CSC(=O)C1)c1ccccc1F (stereo not given)	7.08 µM [falling, full curve, poor fit]	–
CCCCn1c(-c2cc(Cl)ccc2OC)n[nH]c1=S	35.5 µM [rising, partial curve, poor fit]	12.6 µM [rising, partial curve, poor fit]
CC(C)N(Cc1nc(-c2ccccc2)no1)C(=O)CN(C)S(=O)(=O)c1ccc(Br)cc1	31.6 µM [rising, single point]	–
N#CCCCSc1nnc(CSc2nc3ccccc3s2)n1-c1ccccc1	17.8 µM [rising, single point]	11.2 µM [rising, single point]
COc1ccc(-c2[nH]ncc2C=O)cc1OC	0.0355 µM [rising, full curve, poor fit]	–
COc1ccc(N(Cc2ccco2)C(=O)c2ccccc2F)cc1OC	15.8 µM [rising, single point]	11.2 µM [rising, partial curve, poor fit]
N#CCCN(C(=O)CO/N=C/c1cccc([N+](=O)[O-])c1)c1ccccc1	6.31 µM [falling, full curve, poor fit]	5.01 µM [falling, full curve]
COC(=O)c1[nH]c2ccc(C)cc2c1NC(=O)CN1CCc2cc(OC)c(OC)cc2C1	1.12 µM [falling, full curve, poor fit]	0.708 µM [falling, full curve, poor fit]
COc1ccc(C2N(S(=O)(=O)c3ccccc3)CCN2S(=O)(=O)c2ccc(C)cc2)cc1 (stereo not given)	3.98 µM [falling, partial curve, poor fit]	–
Cc1ccc(-n2ncc3c(N4CCN(C)CC4)ncnc32)cc1Cl	–	35.5 µM [falling, partial curve, poor fit]
O=C(Nc1ncc2c(n1)CC(c1ccco1)CC2=O)c1ccco1 (stereo not given)	0.00398 µM [falling, full curve, poor fit]	–
COC(=O)c1c(NC(=O)c2cccs2)sc2c1CCC(C)C2 (stereo not given)	–	5.62 µM [rising, single point]
CCc1cccc(NC(=O)CSc2ncccc2C(=O)Oc2ccccc2Cl)c1	0.00447 µM [rising, full curve, poor fit]	–
Cc1cccc(C)c1NC(=O)Nc1cccs1	35.5 µM [rising, single point]	–
COc1ccc(Br)cc1CN(C)CC(=O)Nc1c(Cl)cccc1Cl	12.6 µM [falling, single point]	22.4 µM [falling, single point]
CC(OC(=O)c1cc(-c2cccnc2)nc2ccccc12)C(=O)Nc1ccc2ccccc2c1 (stereo not given)	4.47 µM [rising, single point]	–
CC(/C=C/c1cccc(Oc2ccc(F)cc2)c1)N(O)C(N)=O (stereo not given)	0.00447 µM [falling, full curve, poor fit]	10 µM [falling, partial curve, poor fit]
COc1ccc2[nH]c(C)c(CCN(Cc3cccs3)C(=S)Nc3ccccc3OC)c2c1	5.01 µM [rising, partial curve, poor fit]	–
Cc1c(C(=O)N/N=C/c2ccc(Cl)cc2)[nH]c2ccc(Cl)cc12	0.708 µM [rising, full curve]	–
CN(CCOc1ccc(Cl)cc1)c1ccc(S(=O)(=O)N2CCCCC2)cn1	7.08 µM [rising, partial curve]	10 µM [rising, partial curve]
CCOC(=O)C1=C(C)NC(C)=C(C(=O)OCC)C1C(=O)OCC(=O)c1ccc2c(c1)OCCO2	–	17.8 µM [rising, single point]
COc1ccc(C2CNC(=O)C2)cc1OC1CCCC1 (stereo not given)	–	0.251 µM [rising, partial curve]

Rewritten bar-delimited: four of the compounds above.
Compound | AC50 [1] | AC50 [2]
Cc1c(C(=O)N/N=C/c2ccc(Cl)cc2)[nH]c2ccc(Cl)cc12 | 0.708 µM [rising, full curve] | –
CN(CCOc1ccc(Cl)cc1)c1ccc(S(=O)(=O)N2CCCCC2)cn1 | 7.08 µM [rising, partial curve] | 10 µM [rising, partial curve]
CCOC(=O)C1=C(C)NC(C)=C(C(=O)OCC)C1C(=O)OCC(=O)c1ccc2c(c1)OCCO2 | – | 17.8 µM [rising, single point]
COc1ccc(C2CNC(=O)C2)cc1OC1CCCC1 (stereo not given) | – | 0.251 µM [rising, partial curve]

(further entries)

Compound	AC50 [1]	AC50 [2]
CC(C)C(=O)NC(=S)Nc1ccc(S(=O)(=O)N2CCCC2)cc1	0.0126 µM [rising, full curve, poor fit]	0.0141 µM [rising, full curve, poor fit]
COc1ccc(NC(=S)N(CCCN2CCOCC2)Cc2cn(C)c3ccccc23)cc1	12.6 µM [rising, partial curve]	11.2 µM [rising, partial curve, poor fit]
CC[n+]1c(-c2ccc(C)cc2)csc1Nc1c(C)n(C)n(-c2ccccc2)c1=O	35.5 µM [rising, single point]	–
Cc1ccc(N=Nc2c(N)nn(-c3ccccc3)c2N)cc1	5.62 µM [rising, full curve]	–
CC(=O)N[C@@H]1C(O)OC(CO)C(O)C1O (stereo not given in full)	10 µM [falling, partial curve, poor fit]	12.6 µM [falling, partial curve]
COc1ccc(CNc2nc(-c3ccc4c(c3)OCO4)nc3ccccc23)c(OC)c1	15.8 µM [falling, partial curve, poor fit]	11.2 µM [falling, partial curve]
S=C(NCC1COc2ccccc2O1)Nc1ccc(Br)cc1 (stereo not given)	17.8 µM [rising, partial curve]	11.2 µM [rising, partial curve]
Cc1ccc(-n2ncc3c(N4CCC(Cc5ccccc5)CC4)ncnc32)cc1	2.51 µM [rising, partial curve]	–
O=C(NCC1CCCO1)c1c[nH]c2ccc(S(=O)(=O)Nc3cccc(C(F)(F)F)c3)cc2c1=O (stereo not given)	0.0447 µM [falling, full curve]	–
CN1/C(=C/C(=O)c2nc(S(C)(=O)=O)ncc2Cl)C(C)(C)c2ccccc21	17.8 µM [falling, partial curve]	–
CC(=O)C1=C(c2ccccc2)OC(N)=C(C#N)C1c1ccc(O)cc1 (stereo not given)	10 µM [rising, single point]	–
CCNc1ncc2nc(-c3ccccc3)c(=O)n(Cc3cccc(OC)c3)c2n1	20 µM [falling, single point]	15.8 µM [falling, single point]
CN(Cc1ccccc1)S(=O)(=O)c1nnc(NC(=O)c2ccccc2)s1	22.4 µM [rising, single point]	–
CCCOP(=O)(c1ccc(N(C)C)cc1)C(Nc1ccccc1)c1ccc(N(C)C)cc1 (stereo not given)	11.2 µM [rising, partial curve, poor fit]	–
COc1ccc(C2C(C(=O)Nc3cc(C)on3)c3ccccc3C(=O)N2C)cc1OC (stereo not given)	0.794 µM [falling, full curve, poor fit]	0.562 µM [falling, full curve]
Nc1nc(CSc2nc3ccccc3s2)nc(N2CCCCC2)n1	35.5 µM [rising, single point]	31.6 µM [rising, single point]
CCOc1ccccc1N1CCN(Cc2ccc(Br)s2)CC1	–	35.5 µM [rising, single point]
CCOC(=O)C1=C(CSCc2ccccc2)NC(=O)NC1c1cc(C)ccc1C (stereo not given)	12.6 µM [rising, single point]	–
Cc1cc(C)cc(N(C(C)C(=O)NCc2ccc3c(c2)OCO3)S(C)(=O)=O)c1 (stereo not given)	35.5 µM [rising, single point]	2.82 µM [rising, partial curve, poor fit]
Cc1cc(C=O)c(C)n1-c1cccc(C(=O)O)c1	–	35.5 µM [rising, single point]
O=C(O)c1cc([N+](=O)[O-])ccc1NCc1ccccc1	–	0.01 µM [falling, full curve, poor fit]
COc1ccccc1CNC(=O)C1CCN(c2nc3ccccc3o2)CC1	35.5 µM [rising, single point]	–
Cc1cc(/N=C/C=C2\N(C)c3ccccc3C2(C)C)n(CCC#N)n1	22.4 µM [rising, partial curve]	12.6 µM [rising, partial curve]
Cc1ccc2nc(SCC(=O)Nc3cc([N+](=O)[O-])ccc3F)[nH]c2c1	35.5 µM [falling, single point]	14.1 µM [falling, partial curve]
O=c1c2ccccc2oc2nc(-c3ccco3)n(-c3ccccc3)c(=O)c12	0.316 µM [rising, full curve, poor fit]	–
COc1ccccc1/C=N\Nc1cc(C)nc(-n2nc(C)cc2C)n1	35.5 µM [rising, single point]	–
